## Results of single-concentration screens

Chains of the proteins cited; added tags and fusions are not shown. Residues count along the entry.
UniProt Q4DA54, 1-478: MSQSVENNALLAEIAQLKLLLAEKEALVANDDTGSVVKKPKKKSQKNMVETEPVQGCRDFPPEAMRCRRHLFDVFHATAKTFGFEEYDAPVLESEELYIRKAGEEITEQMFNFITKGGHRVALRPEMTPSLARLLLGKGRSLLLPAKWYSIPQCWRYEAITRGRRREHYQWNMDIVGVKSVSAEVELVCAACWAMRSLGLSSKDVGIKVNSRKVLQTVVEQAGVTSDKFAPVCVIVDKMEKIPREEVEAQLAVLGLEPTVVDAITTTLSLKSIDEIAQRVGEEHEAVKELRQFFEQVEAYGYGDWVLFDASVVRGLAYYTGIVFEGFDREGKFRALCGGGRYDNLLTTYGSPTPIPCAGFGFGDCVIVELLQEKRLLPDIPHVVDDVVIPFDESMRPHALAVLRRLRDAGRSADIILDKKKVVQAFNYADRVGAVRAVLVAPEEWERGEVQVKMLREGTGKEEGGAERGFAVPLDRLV
UniProt P9WNZ1, whole entry: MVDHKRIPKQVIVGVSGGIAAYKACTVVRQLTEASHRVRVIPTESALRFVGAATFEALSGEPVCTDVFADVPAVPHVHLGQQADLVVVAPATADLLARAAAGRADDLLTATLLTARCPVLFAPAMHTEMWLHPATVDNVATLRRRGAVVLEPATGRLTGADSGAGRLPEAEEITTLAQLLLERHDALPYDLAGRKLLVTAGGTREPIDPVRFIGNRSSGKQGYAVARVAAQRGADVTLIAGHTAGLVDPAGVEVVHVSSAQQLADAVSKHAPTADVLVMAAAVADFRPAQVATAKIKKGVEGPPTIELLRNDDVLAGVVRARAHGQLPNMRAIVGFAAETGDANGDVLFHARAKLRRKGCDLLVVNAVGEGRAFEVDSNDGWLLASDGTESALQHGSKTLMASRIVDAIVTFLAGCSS
UniProt P9WPC5, whole entry: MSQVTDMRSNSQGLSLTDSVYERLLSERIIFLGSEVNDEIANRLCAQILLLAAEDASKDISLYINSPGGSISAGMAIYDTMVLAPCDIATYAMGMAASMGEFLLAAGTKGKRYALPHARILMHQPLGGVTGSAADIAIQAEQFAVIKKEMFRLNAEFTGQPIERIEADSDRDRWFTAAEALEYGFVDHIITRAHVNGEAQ
UniProt P9WPC3, whole entry partner: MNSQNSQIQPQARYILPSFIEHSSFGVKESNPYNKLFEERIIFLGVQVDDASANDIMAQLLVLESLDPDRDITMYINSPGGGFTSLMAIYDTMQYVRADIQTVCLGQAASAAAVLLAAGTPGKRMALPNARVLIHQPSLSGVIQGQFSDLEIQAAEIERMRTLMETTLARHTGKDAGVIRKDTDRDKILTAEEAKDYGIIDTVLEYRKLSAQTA
UniProt Q8IDJ8, 1-583: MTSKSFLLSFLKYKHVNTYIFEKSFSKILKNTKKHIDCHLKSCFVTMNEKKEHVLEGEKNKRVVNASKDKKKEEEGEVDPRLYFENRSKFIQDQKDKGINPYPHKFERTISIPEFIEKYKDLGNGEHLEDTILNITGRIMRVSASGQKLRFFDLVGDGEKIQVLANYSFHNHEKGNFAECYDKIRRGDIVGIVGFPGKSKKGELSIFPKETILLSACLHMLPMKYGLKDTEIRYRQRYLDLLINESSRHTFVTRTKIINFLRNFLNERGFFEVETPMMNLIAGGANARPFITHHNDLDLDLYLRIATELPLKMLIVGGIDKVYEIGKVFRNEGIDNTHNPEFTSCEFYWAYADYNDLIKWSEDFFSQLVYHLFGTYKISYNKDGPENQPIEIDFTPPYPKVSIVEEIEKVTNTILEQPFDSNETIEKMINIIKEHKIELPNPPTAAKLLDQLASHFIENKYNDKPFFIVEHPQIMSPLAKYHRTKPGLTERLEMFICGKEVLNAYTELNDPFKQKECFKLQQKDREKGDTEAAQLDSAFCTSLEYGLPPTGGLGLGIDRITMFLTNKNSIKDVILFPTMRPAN

Leishmania in macrophages: 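Cell assay of Leishmania donovani living inside macrophages; the read-out is not stated. Tested at 30 µM. Higher reads as stronger inhibition (inferred: compounds with an IC50 in retests scored well above the rest). Of about 69,000 compounds tested this way, about 1,000 (1.5%) reached 50% or more in at least one test.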
TcHisRS: 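Histidine-tRNA ligase, Trypanosoma cruzi CL Brener (UniProt Q4DA54). Enzyme assay of histidyl-tRNA synthetase; the read-out is not stated. Compounds at 30 µM. The record gives no direction; compounds that gave an IC50 in retests scored well above the rest, so higher reads as stronger inhibition. About 69,000 compounds were tested under these conditions; 0.045% (about 31) showed 50% or more at least once.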
CoaBC: 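Coenzyme A biosynthesis protein CoaBC, Mycobacterium tuberculosis (UniProt P9WNZ1). Enzyme assay of CoaBC with a phosphate dye (Biomol Green) read at 650 nm. Compounds at 30 µM. Higher reads as stronger inhibition, judged from the few compounds that gave an IC50. Most strong results did not repeat in a second test. Size under these conditions: about 67,000 compounds, about 40 of them at 50% or above in at least one test.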
ClpP1P2: 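Protease assay of ClpP1P2, read by the AMC dye that it sets free. Target: ClpP1P2, Mycobacterium tuberculosis (UniProt P9WPC5 and UniProt P9WPC3). Tested at 50 µM. Direction is inferred from only a few compounds that gave an IC50; most scored high, so higher reads as stronger inhibition. Most other retested compounds had strongly negative values. About 69,000 compounds were tested under these conditions; 0.015% (about 10) showed 50% or more at least once.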
PfKRS1: 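Enzyme assay of the cytosolic lysyl-tRNA synthetase in 384-well plates, read by luminescence. Target: Lysine-tRNA ligase, Plasmodium falciparum 3D7 (UniProt Q8IDJ8). Compounds at 30 µM. Higher reads as stronger inhibition, judged from the few compounds that gave an IC50. Of about 69,000 compounds tested this way, about 49 (0.071%) reached 50% or more in at least one test.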

The filed quantity is “Percent Effect” (%).
The controls that fix the scale are not given in the record; negative values are as filed.
The compounds are a random part of those screened.
Two or more numbers in one place are separate tests of the same structure; such repeats can differ widely.
A dash means the value is not listed here; it may have been measured.

| # | Compound | Leishmania in macrophages | TcHisRS | CoaBC | ClpP1P2 | PfKRS1 |
|---|---|---|---|---|---|---|
| 1 | `O=C(O)C(F)(F)F.O=C(O)C(F)(F)F.O=C(O)C(F)(F)F.[H][C@@]12OCCN(Cc3cccnc3)[C@@]1([H])CC[C@H]2OCc1csc(C)n1` | 32.78% | - | - | - | - |
| 2 | `CS(=O)(=O)N1Cc2nccn2CC(CN2CCCC2)C1` (configuration not stated) | 12.57% | -2.174% | 1.402% | -1.626% | 3.247% |
| 3 | `CNC(=O)[C@@H]1C[C@H](N)CN1Cc1cc2cc(C)cc(C)c2[nH]c1=O` | 7.507% | 2.128% | 7.158% | 0.8105% | -1.822% |
| 4 | `COC1(CNC(=O)c2ccsc2)CCSC1` (configuration not stated) | 4.61% | 9.135% | 3.69% | -12.35% | -2.821% |
| 5 | `COCCN1CCC2(CC1)CC(COC)N(c1ncccn1)C2.O=C(O)C(F)(F)F.O=C(O)C(F)(F)F` (configuration not stated) | 6.702% | - | - | - | - |
| 6 | `c1ccc(CO[C@@H]2CO[C@@]3(CCN(Cc4ccccn4)C3)C2)nc1` | - | -0.5464% | -0.6729% | 0.4274% | 4.886% |
| 7 | `Cc1ccccc1C(C)NC(=O)c1ccc(=O)n(C)c1` (configuration not stated) | 5.659% | 5.202% | 9.917% | -4.363% | 8.525% |
| 8 | `COC(=O)c1ccc(Cn2cccc(C(F)(F)F)c2=O)s1` | 23.04% | 6.667% | -4.623% | -1.5% | 4.484% |
| 9 | `O=C(c1ccncc1)N1CCCC(c2ncncc2-c2ccncc2)C1` (configuration not stated) | 1.477% | 1.498% | 0.6196% | -8.213% | 0.6161% |
| 10 | `CCc1cc(C(=O)N2CC[C@@H](c3ccc4c(c3)OCO4)[C@H](O)C2)[nH]n1` | 31.51% | 8.8% | 9.979% | 4.691% | 9.667% |
| 11 | `Cc1cn(Cc2ccc(F)c(F)c2)nc1N` | 22.68% | -8.092% | -2.577% | 9.779% | 0.007674% |
| 12 | `Cc1nnc(NC(=O)c2cc(S(=O)(=O)N3CCSCC3)c[nH]2)s1` | 4.021% | 10% | 8.678% | 7.62% | 3.751% |
| 13 | `Cn1cnnc1C1CCCN(c2nc3ccccc3o2)C1` (configuration not stated) | -3.436% | 11.52% | 2.676% | -3.316% | 4.315% |
| 14 | `O=C(c1ccco1)N1CC[C@@H](N2CCOCC2)[C@@H]1Cc1ccccc1` | -27.5% | 5.102% | 1.607% | 3.095% | 4.596% |
| 15 | `Cc1nc(C2(O)CCCNCC2)sc1CCOc1ccccc1F` (configuration not stated) | - | 3.042% | -2.596% | -28.31% | -0.6685% |
| 16 | `N#Cc1cccc(N2CCC3(CCC(=O)N(CC(N)=O)C3)CC2)n1` | 19.7% | 3.03% | 2.813% | -31.93% | 6.257% |
| 17 | `c1ncn(CC2CN(CC3CCCCC3)CCO2)n1` (configuration not stated) | 14.79% | 5.983% | -6.971% | -6.93% | -0.9781% |
| 18 | `CC(C)(C)n1ncc2c1NC(=O)CC2c1ccc(C#N)cc1` (configuration not stated) | 9.479% | 0% | 2.554% | -14.09% | 5.848% |
| 19 | `[H][C@]12CCC[C@@]1(COCC1CC1)CN(S(=O)(=O)N(C)C)C2` | -18.63% | - | - | - | - |
| 20 | `CCC(NCCn1cccn1)C(=O)Nc1cc(C)on1` (configuration not stated) | 1.046% | 0% | 1.35% | 12.26% | -0.6929% |
| 21 | `O=C(COC1CCCC1)NCCCn1nc2ccccn2c1=O` | 26.17% | 9.756% | 4.684% | -5.375% | 7.472% |
| 22 | `O=C(O)C(F)(F)F.[H][C@]12CCN(c3ccc(C)nn3)[C@@]1([H])CCC(=O)N2CCN1CCOCC1` | 37.81% | - | - | - | - |
| 23 | `O=C(N[C@@H]1CN(Cc2ccoc2)C[C@@H]2CCCO[C@@H]21)C1CCC1` | - | 10.58% | 2.963% | 9.015% | 3.47% |
| 24 | `CSCCCN1CC[C@@]2(O)CCN(c3ncccn3)C[C@H]2C1` | - | 4.04% | -0.7673% | -16.31% | 3.898% |
| 25 | `CCOCC(=O)N1CCC(c2cc3ncccc3c(O)n2)CC1` | 8.779% | 3.802% | 2.596% | -11.64% | 0.6382% |
| 26 | `CC(=O)N1CCC2(CC1)CN(CC(C)C)CC21CCNC1=O` (configuration not stated) | - | 6.796% | 0.5089% | 3.184% | -2.386% |
| 27 | `CCN1CCN(C(=O)CCC2CCN(C(=O)CCSC)CC2)CC1` | 3.547% | -2.439% | 6.65% | -17.81% | -0.5886% |
| 28 | `NC(=O)c1ccc(S(=O)(=O)NC(=O)COc2ccc3c(c2)CCC3)cc1` | -2.961% | 0% | 1.554% | 1.574% | 4.29% |
| 29 | `Cn1cc(C(=O)N2CCCC2c2noc(C3CC3)n2)c2ccccc21` (configuration not stated) | -54.35% | 0% | 11.14% | -13.22% | -1.111% |
| 30 | `CN(Cc1cc(F)ccc1F)CC(C)(CO)CO` | 16.15% | 4.046% | -8.678% | -2.649% | 4.286% |
| 31 | `CN1[C@@H](C(=O)NCC2CC2)C[C@@H]2CN(Cc3ccco3)C[C@@H]21` | - | 2.256% | 0.7255% | 3.679% | 1.522% |
| 32 | `CC(C)c1nc2c(n1C)CCN(Cc1cccc(C(N)=O)c1)C2` | 34.33% | 4.118% | -2.813% | -33.61% | 1.161% |
| 33 | `CNC(=O)C1Cn2ccnc2C2(CCN(Cc3ccncc3)CC2)O1` (configuration not stated) | - | 12.75% | 3.75% | 2.142% | 1.232% |
| 34 | `CSc1ccc(NCc2csc(CS(C)(=O)=O)n2)cc1F` | 3.819% | 2.186% | 4.645% | -4.269% | 4.775% |
| 35 | `Cc1cccc(CN2CCN(C(=O)c3cc(C4CC4)[nH]n3)CC2)c1` | 29.29% | 4.651% | 13.38% | -9.22% | 6.693% |
| 36 | `CCNC(=O)C1(Cc2cc(-c3ccc(C)cc3)no2)CCCN(C)C1` (configuration not stated) | 6.283% | 0.3831% | 9.794% and 22.33% | -15.27% | -0.9741% |
| 37 | `[H][C@]12CCN(C(N)=O)[C@@]1([H])CC[C@H](COCc1csc(C)n1)O2` | -33.16% | - | - | - | - |
| 38 | `CCN(C)Cc1cccc(CNC(=O)CSCc2ccccn2)c1` | 7.901% | 5.025% | -2.589% | -6.738% | -1.886% |
| 39 | `COCCCN1CC2(CCCCN2C(=O)c2ccsc2)CC1=O` (configuration not stated) | 29.23% | 2.256% | 2.66% | -0.8584% | 7.26% |
| 40 | `COC(C)(C)Cn1ccnc1-c1cccc(C(C)N(C)C)c1` (configuration not stated) | 24.7% | 3.093% | 2.857% | 2.38% | 6.999% |
| 41 | `CC(C)NC(=O)c1ccc2c(c1)C1(CCN(C(C)C)CC1)C(=O)N2` | - | 2.804% | 0.4938% | -12.42% | 0.6945% |
| 42 | `Cc1csc(CN(C)C(C)C(=O)N2CCc3ccccc3C2)n1` (configuration not stated) | -0.3865% | 7.389% | -4.114% | -13.53% | 2.065% |
| 43 | `O=C(O)C(F)(F)F.O=C(O)C(F)(F)F.[H][C@@]12C[C@@H](C(=O)NC)N(C(C)C)[C@]1([H])CN(c1ncccn1)C2` | 16.53% and 14.03% | - | - | - | - |
| 44 | `COCCC(=O)N1CCC2(CCCN2Cc2cccc(Cl)c2)C1` (configuration not stated) | -76.35% | 7.975% | 0.6402% | -3.611% | 0.1901% |
| 45 | `Cc1nc(C(C)(C)NCc2ncc(C3CC3)o2)sc1C` | -1.983% | 2.941% | -0.9569% | 4.515% | -3.298% |
| 46 | `O=C(O)C(F)(F)F.c1cnc(N2CC3(CCN(CC4CCOC4)CC3)c3ccccc32)nc1` (configuration not stated) | 3.182% | - | - | - | - |
| 47 | `CC1CCc2sc(C(=O)Nc3cnn(C)c3)cc2C1` (configuration not stated) | -4.509% | 0% | 7.056% | 6.121% | -2.223% |
| 48 | `O=C(c1cocn1)N1CCC[C@]2(C[C@@H](OCC3CC3)CO2)C1` | 14.29% | 7.843% | 0.25% | -4.751% | 2.844% |
| 49 | `O=C(O)C(F)(F)F.[H][C@@]12CN(C(=O)c3ccsc3)C[C@]1([H])C(=O)N(Cc1cccc(C)n1)C2` | 24.13% | - | - | - | - |
| 50 | `c1ccc(Cc2nnc(CN3CCOC(Cn4cccn4)C3)o2)cc1` (configuration not stated) | -2.514% | 4% | 3.15% | 1.68% | 1.197% |
| 51 | `CNC(=O)C(NC(=O)c1c(C)noc1C)c1ccc(F)c(F)c1` (configuration not stated) | -5.597% | 5.172% | 4.762% | 8.517% | 1.667% |
| 52 | `O=C(O)C(F)(F)F.[H][C@]12C[C@H](C(=O)NC)N(C)[C@@]1([H])CN(S(=O)(=O)c1ccccc1)C2` | 4.564% | - | - | - | - |
| 53 | `Cc1nc(C)n(C2CCCN(C(=O)c3ccc4c(c3)COC4)C2)n1` (configuration not stated) | 13.41% | 1.149% | 0.3373% | 6.197% | 1.769% |

The last 6 entries again:

O=C(c1cocn1)N1CCC[C@]2(C[C@@H](OCC3CC3)CO2)C1 read Leishmania in macrophages: 14.29%; TcHisRS: 7.843%; CoaBC: 0.25%; ClpP1P2: -4.751%; PfKRS1: 2.844%.
O=C(O)C(F)(F)F.[H][C@@]12CN(C(=O)c3ccsc3)C[C@]1([H])C(=O)N(Cc1cccc(C)n1)C2 read Leishmania in macrophages: 24.13%.
c1ccc(Cc2nnc(CN3CCOC(Cn4cccn4)C3)o2)cc1 (configuration not stated) read Leishmania in macrophages: -2.514%; TcHisRS: 4%; CoaBC: 3.15%; ClpP1P2: 1.68%; PfKRS1: 1.197%.
CNC(=O)C(NC(=O)c1c(C)noc1C)c1ccc(F)c(F)c1 (configuration not stated) read Leishmania in macrophages: -5.597%; TcHisRS: 5.172%; CoaBC: 4.762%; ClpP1P2: 8.517%; PfKRS1: 1.667%.
O=C(O)C(F)(F)F.[H][C@]12C[C@H](C(=O)NC)N(C)[C@@]1([H])CN(S(=O)(=O)c1ccccc1)C2 read Leishmania in macrophages: 4.564%.
Cc1nc(C)n(C2CCCN(C(=O)c3ccc4c(c3)COC4)C2)n1 (configuration not stated) read Leishmania in macrophages: 13.41%; TcHisRS: 1.149%; CoaBC: 0.3373%; ClpP1P2: 6.197%; PfKRS1: 1.769%.

Measurements from “University of Dundee, Small-Polar-MMV Screening Library” (2021), ChEMBL document CHEMBL3988442.